Test results taken from PMC5718516.
No constants are given. Whether binding was seen depends on the method and setting. Binding seen in cells or lysates may run through a third protein. Some entries that bind do so weakly or less than the wild type.

Sequences of proteins named here, by UniProt entry; tags and fusion partners are left off.
UniProt Q13887: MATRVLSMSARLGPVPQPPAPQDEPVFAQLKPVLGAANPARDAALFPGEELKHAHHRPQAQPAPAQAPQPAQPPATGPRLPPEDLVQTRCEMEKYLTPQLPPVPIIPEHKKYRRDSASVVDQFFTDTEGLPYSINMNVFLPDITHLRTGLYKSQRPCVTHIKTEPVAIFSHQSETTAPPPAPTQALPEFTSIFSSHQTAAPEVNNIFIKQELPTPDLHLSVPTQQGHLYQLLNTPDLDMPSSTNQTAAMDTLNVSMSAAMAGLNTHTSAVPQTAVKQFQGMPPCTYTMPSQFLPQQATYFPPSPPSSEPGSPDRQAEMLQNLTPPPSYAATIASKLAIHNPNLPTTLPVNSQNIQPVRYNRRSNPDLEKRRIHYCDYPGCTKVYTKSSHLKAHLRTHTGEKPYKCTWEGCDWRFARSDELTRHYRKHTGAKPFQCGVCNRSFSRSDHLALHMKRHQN
UniProt P01106: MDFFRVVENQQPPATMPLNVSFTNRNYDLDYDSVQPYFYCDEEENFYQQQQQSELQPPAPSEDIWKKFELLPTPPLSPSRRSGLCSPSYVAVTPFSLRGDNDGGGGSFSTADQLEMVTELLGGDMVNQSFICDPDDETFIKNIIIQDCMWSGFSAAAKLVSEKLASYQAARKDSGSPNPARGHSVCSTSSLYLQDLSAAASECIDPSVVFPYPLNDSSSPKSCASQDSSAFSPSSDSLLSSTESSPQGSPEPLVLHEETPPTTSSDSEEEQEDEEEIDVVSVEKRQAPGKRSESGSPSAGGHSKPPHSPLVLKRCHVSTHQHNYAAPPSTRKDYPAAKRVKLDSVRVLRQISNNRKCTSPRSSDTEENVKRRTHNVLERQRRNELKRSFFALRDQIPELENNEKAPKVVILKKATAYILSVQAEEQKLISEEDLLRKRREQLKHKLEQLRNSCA

Target: Krüppel-like factor 5 (klf5), HEK293 cells (human (endogenous in HEK293)) (UniProt Q13887)
Test: co-IP; HEK293 cell extracts; immunoprecipitation with antibody to klf5, immunoblot with antibody to c-Myc; cells treated with 20 μM RSV for 12, 24, 48 h, or cultured in high glucose (25 mmol/L) without or with LY294002 (2 h) or RSV (20 μM, 24 h)

binding: binds
Substance: c-Myc, HEK293 cells (from UniProt P01106 1-454)
